Patent publication US20180214449A1, “CANCER THERAPY USING JAK INHIBITOR IN COMBINATION WITH MAPK INHIBITORS” (UBRX, INC., priority 2015, published 2018)
At least one structure is not confirmed: it was looked up by name or label, or the drawing left a doubt.

How the values were obtained:
[1] = test system: B-Raf inhibitor resistant cells A375 or Lu1205R; test: Growth in soft agar of B-Raf inhibitor resistant cells; type: cell-based, human; details: two weeks in soft agar
Method: Melanoma cells A375 and Lu1205 were cultured in Dulbecco's modified Eagle's medium (DMEM) supplemented with 10% fetal bovine serum (FBS), and penicillin-streptomycin. The melanoma UACC cell lines (UACC91, UACC502, UACC612, UACC647, and UACC1113) were maintained in Rosewell Park Memorial Institute Medium (RPMI1640) supplemented with 10% FBS and penicillin-streptomycin.

melanoma patients = details: cited from earlier work
[2] = test system: A375, Lu1205, and several UACC melanoma cell lines resistant to BRAF inhibitors or BRAF and MEK inhibitors; test: Example 2: growth in soft agar of resistant melanoma cells; type: cell-based, human; details: two weeks in soft agar, 0-10 μM
Method: The cells are grown for two weeks in soft agar, in the presence of 0-10 μM of ruxolitinib (JAK1 inhibitor), dabrafenib (BRAF inhibitor), trametinib (MEK inhibitor) as single agents or in combination therapies, using a constant volume of inhibitor for all the conditions.

Row | SMILES | growth in soft agar [1] | Median PFS (melanoma patients; initial Phase 1 extension study) | growth of the melanoma cells in soft agar [2] | time until progression on single agent (melanoma patients; clinical trial data, single-agent) [months] | clinical activity (melanoma patients; patients failing dabrafenib)
1 | CCCS(=O)(=O)Nc1ccc(F)c(C(=O)c2c[nH]c3ncc(-c4ccc(Cl)cc4)cc23)c1F [PLX-4032, vemurafenib] | did not inhibit growth | approximately 7 months |  |  | 
2 | N#CC[C@H](C1CCCC1)n1cc(-c2ncnc3[nH]ccc23)cn1 [ruxolitinib] |  |  | does not block the growth |  | 
3 | CC(=O)Nc1cccc(-n2c(=O)n(C3CC3)c(=O)c3c(Nc4ccc(I)cc4F)n(C)c(=O)c(C)c32)c1 [trametinib] |  |  | does not block the growth | 6 to 7 | minimal clinical activity
